The name of at least one read-out is uncertain.
Test system: bacterial sludge
Assay: Bacterial sludge contact test (environmental stability)
Settings: room temperature, about 496 ppm

With `O=C(O)C(F)(C(F)(F)F)C(F)(F)C(F)(F)C(F)(F)C(F)(F)C(F)(F)C(F)(F)F` (centres unmarked) [Example M16, C6 F13 CF(CF3)COO^- H4 N^+] the “% Perfluoroolefin/Perfluoromonohydride Formed” value (Day 1, sludge, 1440 min) was 4%, the “% Perfluoroolefin/Perfluoromonohydride Formed” value (Day 4, sludge, 5760 min) was 13% and the “% Perfluoroolefin/Perfluoromonohydride Formed” value (Day 7, sludge, 10080 min) was 23%. For the same compound, the “% Perfluoroolefin/Perfluoromonohydride Formed” value (Day 14, sludge, 20160 min) was 44% and the “% Perfluoroolefin/Perfluoromonohydride Formed” value (Day 28, sludge, 40320 min) was 70%.

From US6015838A, “Aqueous film-forming foam compositions” (3M Innovative Properties Company, priority 1996, dated 2000)
